Assay results

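Luminescence from an EWS-FLI1 target-promoter (NR0B1) reporter, set against a CMV-promoter reporter, two days after silencing single genes in TC32 Ewing sarcoma cells.
Each siRNA was applied at 20 nM.
A z-score of the log NR0B1-over-CMV signal, less the median of siRNAs with the same seed; more negative means a stronger specific loss of the NR0B1 reporter.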

This is part of the screen; most of the strongest results are not listed here.
Sequences are the guide (antisense) strand, without overhang.

strand,target gene,seed-corrected z-score
UUUCUGUACAAUUUUCUUG,PPBP,0.01462
AAGACAACGAUGACCACGC,MFSD10,-0.7374
UUGGAGUUAAACCCGCCCG,PUS1,1.207
UCAUAGGUGAGAAGUUUCC,MAGED1,-0.7847
AACGUAACUACCUUCAUCC,RAVER2,0.851
UCACUUGCUUUUAUUGUCU,ANKRD37,-0.9539
UGCUUGUCCUUUUUAUACC,MACROD1,-0.05219
ACUGGACCGAGUAAUAUCC,NUP37,0.3688
UAUGUCAUGAUGCCCUCUG,BPY2,-0.0226
UGAGCUAUCUCCAUCCUCG,BRMS1L,0.9533
AACUCUCCCACACUGAAUC,MCAT,0.8286
AGCUUUUUAAGCCCUGUCC,RTP4,-0.9103
AUAUGUUCUCUAGUUAUGC,TEX15,-0.6145
UUGGAUUCAAAGUACUUAG,CD48,0.9165
UUAGUGGUAAGGCAAAUCC,PPP2R5C,-1.175
UUUCCUCUAAGGACAUAUG,C10orf107,-0.446
AUUCGGUCCACAAGUGUCC,UBIAD1,0.4156
AUACUAUAUAUCGACAAGC,DCP1A,-0.1972
UCAUAUAGAAGCAAAUUGC,PCDHB5,0.3029
UUCGAGUAAAUGUUUUUCC,ZNF418,-0.1344
UUGUGAGUCUCGCAGGUCG,RPS10,2.611
UUCCAUGUAAUCAUAACUU,FGF7,0.7616
CAAGUUUUAGGUUUCUUUC,ANKRD20A3,1.035
UUGGAGGAUCGCAUCUUGG,HOXA4,-0.0479
AAUUGUAAUUCUCUGGAGC,COLCA2,-0.07192
UCUGCGUACAGUCUGAGGG,PGM5,-1.505
UCAAUUUGAACGGAGGCUC,LST1,-0.3155
AUCAUUCAAAGUUGGAUUG,MUC15,0.6236
UCUGUUUACAAUAUCGUGG,CPSF3,0.01503
UAUUCGAAGUUAACGGUGC,KIAA1324,0.1416
GCCAUGACCAUAGCCACAG,KRTAP6-2,-0.4211
AAGAGUGCAAAAACAAUCC,REEP4,0.1929
UCGUAUUUAAGAUAUCCUG,RALGAPA2,0.072
UAUCAAUCCAAAGAGGGCG,SIDT1,-0.1559
UAUUCUAUUUGUGACAUAC,DPY19L3,-0.27
UAUCCGCCGAUCUUCAAUC,NCKAP1L,-0.3469
UACAUGACAUUCUGCAUCU,KCNN3,-0.8139
UACUCGAUGCUGUAGACCG,IL22RA1,0.3406
AGACUGUUCCCGAAUGUCC,RIN1,-0.008964
UUGGGAUUCUCCAUCUUGC,IRGQ,0.3387
UUCGUGAUGCUUAAAGCUC,ZYG11B,-0.01902
UGAACUCCGACCAUAUGCC,ZNF667,1.172
AUGGUGUCAGGUUCAAUGC,AGK,0.6826
UGUAGGUAGAUGUGCUUCC,AMZ1,-0.1716
AAAGCUUCAGCUCACAAUC,HIP1R,-0.4929
UUUGUGAAUGAGACGGUCA,GP6,0.01789
UGUUGUAACGGUCUAAGUC,CFAP61,-1.119
UAGAGGGAUAUUGAAGCUC,HDAC3,-0.6296
UCCUUUCUCCGCCUGGAUG,MEOX1,0.8296
AGAAGGUCACUCCUUGUGC,GCHFR,1.098
UCUAUUACAACAUACAUUC,GGCT,0.0665
UGUCCUUGAAGCUAAGCUC,FAM107A,-0.8979
UAUAGAAAUUGAACAUUCC,LOC647859,-0.01086
UUGUAGUACACGAUGAAGC,INSRR,-1.242
UUCAUGACAAGUGAUGAUU,SUSD4,-0.7772
UCAUUGUUAUAUAUCGUAC,ANKRD30A,0.2167
UUCCAUAGCCUCAUGAACU,RPL13AP20,-0.09593
UUGGGAAAAGUAGCUGCGC,DAZAP1,-0.6315
UCGUAGAAAAAUAGCGUGC,TIAM1,0.2736
UUGCGUACAUUAUAGAUGC,PHLPP2,0.7145
UCUGAGACAAAAAUUGAGG,RASSF1,0.7143
UUGCCUUGACCGUCGAUGU,GATA3,-0.6567
AAACUGACUUGCCUAUUUC,ZG16,0.1348
UCUUCUCUCAAAAAUAGAG,KIAA1614,0.4672
GAAGCUUCCGCACCAACAG,CRB3,-0.6454
UUUAUUAUCAAUUCGUCAG,LINC00174,-0.3826
AUAGGUGUUAACCAAAGGC,MYBPC1,-0.3095
UCCGUUUAUAGAAGUAGCA,TMEM138,1.005
UUUCCCUUGAUUUCCUUCG,TEAD2,-0.4098
UCUGUGGUCACGUUGAAGU,PNPLA6,0.1118
UCUGGUACCUAGAUUCCUG,FUT5,0.7522
UUAGGGUUUACCUCGAACC,CTPS2,0.2757
UAGUGUAAGCCUGUCAGCG,DPYSL5,0.8688
UGGUAAGUAAGAGAUGAGC,ZFP37,-0.8217
UGAGGUUCGGAGUAUCUCC,TEX13A,-0.453
UGUUUAAUAAGGUAUGAGA,ZNF100,-0.5278
UUUAUACCUGGAUAGAUCC,CACNA2D4,-1.011
UCAAGGGCUGUCAAAGAUG,TNFRSF13C,-0.6024
UUCGUGAUAGGCUUUCUCG,TUBA8,-0.1826
UCUCAGGUCUGUGAUCUCC,KRT15,-0.2695

Repeated from the top, 4 entries:

strand,target gene,seed-corrected z-score
UUUCUGUACAAUUUUCUUG,PPBP,0.01462
AAGACAACGAUGACCACGC,MFSD10,-0.7374
UUGGAGUUAAACCCGCCCG,PUS1,1.207
UCAUAGGUGAGAAGUUUCC,MAGED1,-0.7847

Source: PubChem BioAssay AID1159506 (NCATS, 2015).